According to PMC7904838:

Target: T1, HECTD3 (endogenous, rat liver) (rat (endogenous in rat liver)) (UniProt F1LVZ9)
T1 sequence: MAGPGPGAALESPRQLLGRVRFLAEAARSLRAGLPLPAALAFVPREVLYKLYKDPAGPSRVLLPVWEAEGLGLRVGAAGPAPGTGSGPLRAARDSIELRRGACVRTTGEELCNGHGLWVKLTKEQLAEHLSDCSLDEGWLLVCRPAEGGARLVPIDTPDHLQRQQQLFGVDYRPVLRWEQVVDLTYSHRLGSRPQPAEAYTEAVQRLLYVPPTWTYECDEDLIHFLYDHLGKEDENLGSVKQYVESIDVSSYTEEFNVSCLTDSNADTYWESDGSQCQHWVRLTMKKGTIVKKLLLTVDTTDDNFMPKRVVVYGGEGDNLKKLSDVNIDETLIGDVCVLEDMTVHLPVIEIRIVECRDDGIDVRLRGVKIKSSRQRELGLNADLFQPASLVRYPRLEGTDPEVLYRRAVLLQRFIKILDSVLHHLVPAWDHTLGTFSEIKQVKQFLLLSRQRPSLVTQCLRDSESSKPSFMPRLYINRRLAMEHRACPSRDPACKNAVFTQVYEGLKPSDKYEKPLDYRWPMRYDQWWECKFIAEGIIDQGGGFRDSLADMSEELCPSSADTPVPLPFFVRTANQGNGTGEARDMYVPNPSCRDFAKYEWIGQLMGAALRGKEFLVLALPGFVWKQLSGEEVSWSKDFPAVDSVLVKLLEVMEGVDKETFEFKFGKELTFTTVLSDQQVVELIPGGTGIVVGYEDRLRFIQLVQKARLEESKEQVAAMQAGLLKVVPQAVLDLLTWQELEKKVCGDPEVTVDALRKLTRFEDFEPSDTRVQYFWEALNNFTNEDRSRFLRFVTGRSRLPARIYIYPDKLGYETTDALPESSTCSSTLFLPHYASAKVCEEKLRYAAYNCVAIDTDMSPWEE
Assay: co-IP; rat liver tissue protein extracts (DCD model; CS and HOPE groups compared); IP with anti-HECTD3 antibody, protein A + G agarose beads, 4 °C; immunoblot

TRAF3 (endogenous, rat liver) was tested, and the binding was “binds”.

No constants are given. Whether binding was seen depends on the method and setting. In cells and extracts the contact can be indirect. Binding can be weak; no strength is given.
